Measured values from the supplement of paper PMC11098740.
Where a name gives a salt, the structure may show the parent alone. ± gives the standard deviation of the averaged measurements. This is one part of the list. Single values are uncertain, as repeats are few or missing.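 Pooled together, 41 HAP1 clones carry intronic fluorescent tags on 61 cancer-associated proteins, and each clone is recognized by its imaging pattern. Measurements are benchmarked against DMSO-treated control wells. dBET6, a BRD4 degrader, served as the positive control.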

Target: BRD4 (intron 10 mScarlet tag, HAP1) (UniProt O60885)
Test: BRD4 median nuclear fluorescence intensity change vs DMSO (log2 fold change); higher = more BRD4 protein
Details: 6 h

| Compound | BRD4 median nuclear fluorescence intensity change (log2) |
| --- | --- |
| C[C@@H](NCCCc1cccc(C(F)(F)F)c1)c1cccc2ccccc12 [cinacalcet] (10 µM) | 0.0614 |
| CCOC(=O)C1=C[C@@H](OC(CC)CC)[C@H](NC(C)=O)[C@@H](N)C1 [oseltamivir] (9.9999 µM) | 0.0345 |
| CC[N+](C)(CC)CCOC(=O)C(O)(c1ccccc1)C1CCCCC1 (centres undefined) [oxyphenonium bromide] (9.99928 µM) | 0.0227 |
| NCCCC(N)(C(=O)O)C(F)F (centres undefined) [eflornithine] (10 µM) | 0.113 |
| N#C[C@@H]1C[C@@H]2C[C@@H]2N1C(=O)[C@@H](N)C12CC3CC(CC(O)(C3)C1)C2 [saxagliptin] (9.99933 µM) | -0.0319 |
| O=[N+]([O-])c1cnc(CO)n1CCO [hydroxymetronidazole] (10 µM) | -0.00384 |
| C[C@H](N)C(=O)O.N[C@@H](Cc1ccc(O)cc1)C(=O)O [glatiramer acetate] (10 µM) | 0.207 |
| Cc1cc(Nc2ncc(Cl)c(Nc3ccccc3S(=O)(=O)C(C)C)n2)c(OC(C)C)cc1C1CCNCC1 [ceritinib] (10 µM) | 0.0564 |
| CC(N/C(=N\C#N)Nc1ccncc1)C(C)(C)C (centres undefined) [pinacidil] (10 µM) | -0.00458 |
| CC/C(=C(\c1ccc(O)cc1)c1ccc(OCCNC)cc1)c1ccccc1 [endoxifen (hydrochloride)] (10 µM) | 0.119 |
| C[C@H](N[C@@H](CCc1ccccc1)C(=O)O)C(=O)N1CCC[C@H]1C(=O)O [enalaprilat] (9.99909 µM) | -0.061 |
| COc1cc2/c(=N/c3ccc(Br)cc3F)nc[nH]c2cc1OCC1CCN(C)CC1 [vandetanib] (20 µM) | 0.158 |
| O=C1c2cccc3c2[C@H](CCC3)CN1[C@@H]1CN2CCC1CC2 [palonosetron] (10 µM) | 0.0501 |
| O=C(C1CCCCC1)N1CC(=O)N2CCc3ccccc3C2C1 (centres undefined) [praziquantel] (9.99966 µM) | 0.097 |
| NCCc1ccc(O)c(O)c1 [dopamine] (10.0004 µM) | 0.0125 |
| NC(=O)c1cn(Cc2c(F)cccc2F)nn1 [rufinamide] (10 µM) | -0.0016 |
| CO[C@H]1O[C@@H]2O[C@@]3(C)CC[C@H]4[C@H](C)CC[C@@H]([C@H]1C)[C@@]24OO3 [artemether] (10 µM) | 0.0669 |
| CCOc1cc2ncc(C#N)c(Nc3ccc(OCc4ccccn4)c(Cl)c3)c2cc1NC(=O)/C=C/CN(C)C [neratinib] (10 µM) | 0.004 |
| CCS(=O)(=O)CCn1c([N+](=O)[O-])cnc1C [tinidazole] (10 µM) | 0.00376 |
| CN[C@H]1CC[C@@H](c2ccc(Cl)c(Cl)c2)c2ccccc21 [sertraline] (9.99956 µM) | 0.04 |

| Compound | BRD4 median nuclear fluorescence intensity change (log2) |
| --- | --- |
| C#C[C@]1(O)CC[C@H]2[C@@H]3CCc4cc(O)ccc4[C@H]3CC[C@@]21C [ethinyl estradiol] (9.99913 µM) | 0.17 |
| C#CCC(Cc1cnc2nc(N)nc(N)c2n1)c1ccc(C(=O)N[C@@H](CCC(=O)O)C(=O)O)cc1 (some centres undefined) [pralatrexate] (0.0871 µM) | -0.0234 ± 0.045 |
| NN1CCOC1=O [3-amino-2-oxazolidinone] (5.429755364 µM) | 0.0776 |
| COCc1c(C(C)C)nc(C(C)C)c(/C=C/[C@@H](O)C[C@@H](O)CC(=O)O)c1-c1ccc(F)cc1 [cerivastatin] (10.5 µM) | 0.223 |
| CN(C)C(=N)NC(=N)N [metformin] (10 µM) | 0.0688 |
| CN(C)CCCC1(c2ccc(F)cc2)OCc2cc(C#N)ccc21 (centres undefined) [citalopram] (10 µM) | 0.0578 |
| COc1cc(Nc2ncc3c(n2)-c2ccc(Cl)cc2C(c2c(F)cccc2OC)=NC3)ccc1C(=O)O [alisertib] (10 µM) | 0.0599 |
| N=C(N)c1ccc(OCCCCCOc2ccc(C(=N)N)cc2)cc1 [pentamidine] (10.00031669 µM) | 0.00632 |
| CCC(c1ccccc1)c1c(O)c2ccccc2oc1=O (centres undefined) [phenprocoumon] (10 µM) | 0.0482 |
| O=C1CN(/N=C/c2ccc(-c3ccc([N+](=O)[O-])cc3)o2)C(=O)N1 [dantrolene] (10 µM) | 0.082 |
| Nc1nc(F)nc2c1ncn2[C@@H]1O[C@H](CO)[C@@H](O)[C@@H]1O [fludarabine] (9.99886 µM) | 0.0527 |
| CC(C)C[C@H](NC(=O)[C@@H](Cc1c[nH]c2ccccc12)NC(=O)[C@H](Cc1ccc(O)cc1)NC(=O)[C@H](CO)NC(=O)[C@H](Cc1c[nH]c2ccccc12)NC(=O)[C@H](Cc1c[nH]cn1)NC(=O)[C@@H]1CCC(=O)N1)C(=O)N[C@@H](CCCNC(=N)N)C(=O)N1CCC[C@H]1C(=O)NCC(N)=O [triptorelin] (20 µM) | -0.0134 |
| NCCC(O)(P(=O)(O)O)P(=O)(O)O [pamidronic acid] (10 µM) | -0.0135 |
| C[C@@H]1O[C@@H]1P(=O)(O)O [fosfomycin] (10 µM) | 0.127 |
| O=C(/C=C/c1cccc(S(=O)(=O)Nc2ccccc2)c1)NO [belinostat] (20 µM) | -0.0325 |
| O=C1CCc2ccc(OCCCCN3CCN(c4cccc(Cl)c4Cl)CC3)cc2N1 [aripiprazole] (10.0009 µM) | 0.00696 |
| CCN(CCO)CCCC(C)Nc1ccnc2cc(Cl)ccc12 (centres undefined) [hydroxychloroquine] (9.99954 µM) | 0.0884 |
| C[C@H]1[C@@H](O)O[C@@H]2O[C@@]3(C)CC[C@H]4[C@H](C)CC[C@@H]1[C@@]24OO3 [dihydroartemisinin] (10 µM) | 0.0171 |
| CC(=O)O[C@H]1C(=O)[C@@]2(C)[C@H]([C@H](OC(=O)c3ccccc3)[C@]3(O)C[C@H](OC(=O)[C@H](O)[C@@H](NC(=O)c4ccccc4)c4ccccc4)C(C)=C1C3(C)C)[C@]1(OC(C)=O)CO[C@@H]1C[C@@H]2O [paclitaxel] (0.065394 µM) | 0.048 |

Some of these compounds in order of length of the SMILES, largest number first.

| Compound | BRD4 median nuclear fluorescence intensity change (log2) |
| --- | --- |
| CC(C)C[C@H](NC(=O)[C@@H](Cc1c[nH]c2ccccc12)NC(=O)[C@H](Cc1ccc(O)cc1)NC(=O)[C@H](CO)NC(=O)[C@H](Cc1c[nH]c2ccccc12)NC(=O)[C@H](Cc1c[nH]cn1)NC(=O)[C@@H]1CCC(=O)N1)C(=O)N[C@@H](CCCNC(=N)N)C(=O)N1CCC[C@H]1C(=O)NCC(N)=O [triptorelin] (20 µM) | -0.0134 |
| CC(=O)O[C@H]1C(=O)[C@@]2(C)[C@H]([C@H](OC(=O)c3ccccc3)[C@]3(O)C[C@H](OC(=O)[C@H](O)[C@@H](NC(=O)c4ccccc4)c4ccccc4)C(C)=C1C3(C)C)[C@]1(OC(C)=O)CO[C@@H]1C[C@@H]2O [paclitaxel] (0.065394 µM) | 0.048 |
| C[C@H]1[C@@H](O)O[C@@H]2O[C@@]3(C)CC[C@H]4[C@H](C)CC[C@@H]1[C@@]24OO3 [dihydroartemisinin] (10 µM) | 0.0171 |
| COc1cc(Nc2ncc3c(n2)-c2ccc(Cl)cc2C(c2c(F)cccc2OC)=NC3)ccc1C(=O)O [alisertib] (10 µM) | 0.0599 |
| O=C1CN(/N=C/c2ccc(-c3ccc([N+](=O)[O-])cc3)o2)C(=O)N1 [dantrolene] (10 µM) | 0.082 |
| O=C1CCc2ccc(OCCCCN3CCN(c4cccc(Cl)c4Cl)CC3)cc2N1 [aripiprazole] (10.0009 µM) | 0.00696 |
| O=C(/C=C/c1cccc(S(=O)(=O)Nc2ccccc2)c1)NO [belinostat] (20 µM) | -0.0325 |
| N=C(N)c1ccc(OCCCCCOc2ccc(C(=N)N)cc2)cc1 [pentamidine] (10.00031669 µM) | 0.00632 |
| CCC(c1ccccc1)c1c(O)c2ccccc2oc1=O (centres undefined) [phenprocoumon] (10 µM) | 0.0482 |
| CN(C)C(=N)NC(=N)N [metformin] (10 µM) | 0.0688 |
